Assay results taken from article PMC8194828.
These are yes or no findings as the source states them, for the method shown. In cells and extracts the contact can be indirect. Some entries that bind do so weakly or less than the wild type. For some assays here: Sequences can lack the tags named with a protein.

By UniProt entry, the sequences of proteins in these tests, tags left out.
UniProt Q13541: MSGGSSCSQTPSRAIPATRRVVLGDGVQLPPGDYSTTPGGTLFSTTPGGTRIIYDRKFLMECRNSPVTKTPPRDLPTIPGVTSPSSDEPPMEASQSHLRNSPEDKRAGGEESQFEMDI

T1: PIP4K2A overexpressed in HEK293T cells (human) (UniProt P48426)
T1 sequence: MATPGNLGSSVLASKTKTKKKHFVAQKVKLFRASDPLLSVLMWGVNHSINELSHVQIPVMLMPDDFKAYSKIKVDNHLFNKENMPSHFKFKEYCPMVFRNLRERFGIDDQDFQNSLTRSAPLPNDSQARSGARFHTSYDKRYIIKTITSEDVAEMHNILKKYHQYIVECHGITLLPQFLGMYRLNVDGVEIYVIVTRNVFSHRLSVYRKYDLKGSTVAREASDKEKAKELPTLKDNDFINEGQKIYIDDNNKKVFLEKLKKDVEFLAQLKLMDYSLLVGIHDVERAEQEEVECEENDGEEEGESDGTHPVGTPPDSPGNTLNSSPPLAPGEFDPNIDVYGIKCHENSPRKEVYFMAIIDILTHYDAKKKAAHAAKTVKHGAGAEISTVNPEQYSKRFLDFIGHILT


Legend:
[1] = molecular target: T1, PIP4K2A overexpressed in HEK293T cells (human); experiment: co-IP; lysate of HEK293T cells overexpressing PIP4K2A (10 mM Tris pH 7.5, 150 mM NaCl, 10% glycerol); IP with anti-PIP4K2A (SC-100406) on Protein G magnetic beads, 4°C, 16 h; mouse IgG as control; blot with anti-eIF4EBP1
GST eIF4EBP1 = GST eIF4EBP1 (UniProt Q13541); experiment: pull-down; His-PIP4K2A and GST fusion co-expressed in E. coli BL21-codon+; GST fusion held on glutathione resin, washed several times; His-PIP4K2A detected by Western blot (anti-His or anti-PIP4K2A)

Row | binding [1] | binding (GST eIF4EBP1) | Molecule
1 | binds |  | eIF4EBP1 (in HEK293T lysate) (from UniProt Q13541 1-118)
2 |  | binds | His-tagged PIP4K2A (phosphatidylinositol 5-phosphate 4-kinase) (enzyme, UniProt P48426 1-406) MATPGNLGSSVLASKTKTKKKHFVAQKVKLFRASDPLLSVLMWGVNHSINELSHVQIPVMLMPDDFKAYSKIKVDNHLFNKENMPSHFKFKEYCPMVFRNLRERFGIDDQDFQNSLTRSAPLPNDSQARSGARFHTSYDKRYIIKTITSEDVAEMHNILKKYHQYIVECHGITLLPQFLGMYRLNVDGVEIYVIVTRNVFSHRLSVYRKYDLKGSTVAREASDKEKAKELPTLKDNDFINEGQKIYIDDNNKKVFLEKLKKDVEFLAQLKLMDYSLLVGIHDVERAEQEEVECEENDGEEEGESDGTHPVGTPPDSPGNTLNSSPPLAPGEFDPNIDVYGIKCHENSPRKEVYFMAIIDILTHYDAKKKAAHAAKTVKHGAGAEISTVNPEQYSKRFLDFIGHILT
